Reference: US20240165108A1, “NOVEL USE” (GlaxoSmithKline Intellectual Property Development Limited, priority 2022, published 2024)

Test system: human hair follicles
Experiment: RNA sequencing of ex vivo cultured hair follicles
Type: cell-based
Details: healthy donors, 24 hours, 3 μM succinate
Experimental: RNA extraction, sequencing and analysis were performed as follows; RNA from n=2-3 hair follicles per group was extracted using […]® PicoPure® RNA Isolation Kit (ThermoFisher) including a Dnase digestions step using the Rnase-Free Dnase Set from Qiagen and stored at −80 degrees Celsius until analysed. RNA concentration, purity and integrity were assessed before sequencing. Sequencing was performed on a NovaSeq 6000 using 2×100 bp read length with an output of approximately 30 M clusters (6 Gb per sample). Demultiplexing of the sequencing reads was performed with Illumina bcl2fastq (2.20).
Briefly, DESeq2 first creates a pseudo-reference sample (row-wise geometric mean) and calculates the ratio of each sample to this reference. Then, the normalization factor for each sample (size factor) is calculated using the median value of all ratios for a given sample. Normalized count values are created by dividing each raw count value in a given sample by that sample's normalization factor. Finally, DESeq2 calculates p values and adjusted p values for genes of two groups by allowing the shrinkage of the log 2 fold changes when the information for a gene is low (low counts or high dispersion values). For manual calculation of fold change (FC) between two groups, the ratio of the normalized read counts was used. […]

`O=C([O-])CCC(=O)[O-].[Na+].[Na+]` [Succinate, Sodium succinate] gave a genes significantly upregulated (p <0.05, FC greater than 2) of 28 and a genes significantly downregulated (p <0.05, FC less than 0.5) of 44.
